Assay results: paper PMC4917820, “Structural basis for autoinhibition and its relief of MOB1 in the Hippo pathway” (Scientific Reports, 2016)
Results are given in words; binding and its absence hold for the method and conditions named. Values belong to the binder of their own block, whether it stands above or below them.

Legend:
[1] = target: full-length MOB1B (1-216) (mouse) (UniProt Q8BPB0); test: AUC; sedimentation velocity, 20 °C, 19 μM protein, 20 mM Tris-HCl (pH 7.5), 0.1 M NaCl, scanned at 280 nm; both purified
[2] = target: full-length MOB1B (1-216) (mouse) (UniProt Q8BPB0); test: AUC; sedimentation velocity, 20 °C, 200 μM full-length MOB1B, 20 mM Tris-HCl (pH 7.5), 0.1 M NaCl, scanned at 300 nm; both purified
[3] = target: T1, double-mutant T12D/T35D MOB1B (1-216) (mouse, UniProt Q8BPB0 1-216, T12D | T35D); test: AUC; sedimentation velocity, 20 °C, 19 μM protein, 20 mM Tris-HCl (pH 7.5), 0.1 M NaCl, scanned at 280 nm; both purified
T1 construct: MOB1B, mouse, residues 1-216, with T12D and T35D; everywhere else it is T12D/T35D; also called phosphomimic (T12D/T35D) double-mutant; MOB1B(T12/35D); source: E. coli, purified by the same procedure as full-length MOB1B (GST removed); not shown: GST, N-terminal, cleaved
T1 sequence (looked up): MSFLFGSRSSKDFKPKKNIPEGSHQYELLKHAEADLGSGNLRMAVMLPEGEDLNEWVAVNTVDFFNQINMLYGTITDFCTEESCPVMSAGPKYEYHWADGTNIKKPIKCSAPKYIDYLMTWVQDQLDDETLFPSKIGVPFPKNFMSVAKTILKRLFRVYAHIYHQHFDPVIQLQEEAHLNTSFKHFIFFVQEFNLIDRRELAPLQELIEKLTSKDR

[4] = target: T2, N-terminal truncated MOB1B (33-216) (mouse, UniProt Q8BPB0 33-216); test: as above
T2 construct: MOB1B, mouse, residues 33-216; also called N-terminal 32-residue truncated form; N-truncated MOB1B; source: E. coli, purified (Glutathione Sepharose 4B, HRV 3C digestion, HiTrap Q gradient, Superdex 75pg); not shown: GST, N-terminal, cleaved
T2 sequence (looked up): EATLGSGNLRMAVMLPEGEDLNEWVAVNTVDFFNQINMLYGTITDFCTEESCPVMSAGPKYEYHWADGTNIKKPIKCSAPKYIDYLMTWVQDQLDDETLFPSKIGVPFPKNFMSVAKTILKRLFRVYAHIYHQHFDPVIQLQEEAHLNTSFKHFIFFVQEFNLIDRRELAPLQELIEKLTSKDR

binding [1]: no binding (tested: 19 μM) | binding [2]: no binding (tested: 200 μM)
B1: full-length MOB1B (1-216) (protein, UniProt Q8BPB0 1-216)
chain: MSFLFGSRSSKTFKPKKNIPEGSHQYELLKHAEATLGSGNLRMAVMLPEGEDLNEWVAVNTVDFFNQINMLYGTITDFCTEESCPVMSAGPKYEYHWADGTNIKKPIKCSAPKYIDYLMTWVQDQLDDETLFPSKIGVPFPKNFMSVAKTILKRLFRVYAHIYHQHFDPVIQLQEEAHLNTSFKHFIFFVQEFNLIDRRELAPLQELIEKLTSKDR

binding [3]: no binding (tested: 19 μM)
B2: double-mutant T12D/T35D MOB1B (1-216) (protein, UniProt Q8BPB0 1-216)
chain: MSFLFGSRSSKDFKPKKNIPEGSHQYELLKHAEADLGSGNLRMAVMLPEGEDLNEWVAVNTVDFFNQINMLYGTITDFCTEESCPVMSAGPKYEYHWADGTNIKKPIKCSAPKYIDYLMTWVQDQLDDETLFPSKIGVPFPKNFMSVAKTILKRLFRVYAHIYHQHFDPVIQLQEEAHLNTSFKHFIFFVQEFNLIDRRELAPLQELIEKLTSKDR

binding [4]: no binding (tested: 19 μM)
B3: N-terminal truncated MOB1B (33-216) (domain or fragment, UniProt Q8BPB0 33-216)
chain: EATLGSGNLRMAVMLPEGEDLNEWVAVNTVDFFNQINMLYGTITDFCTEESCPVMSAGPKYEYHWADGTNIKKPIKCSAPKYIDYLMTWVQDQLDDETLFPSKIGVPFPKNFMSVAKTILKRLFRVYAHIYHQHFDPVIQLQEEAHLNTSFKHFIFFVQEFNLIDRRELAPLQELIEKLTSKDR
